Experimental data published in publication PMC11967818.
No constants are given. Whether binding was seen depends on the method and setting. In cells and extracts the contact can be indirect. Some entries that bind do so weakly or less than the wild type.

Chains of the proteins cited; added tags and fusions are not shown.
UniProt Q9Z204: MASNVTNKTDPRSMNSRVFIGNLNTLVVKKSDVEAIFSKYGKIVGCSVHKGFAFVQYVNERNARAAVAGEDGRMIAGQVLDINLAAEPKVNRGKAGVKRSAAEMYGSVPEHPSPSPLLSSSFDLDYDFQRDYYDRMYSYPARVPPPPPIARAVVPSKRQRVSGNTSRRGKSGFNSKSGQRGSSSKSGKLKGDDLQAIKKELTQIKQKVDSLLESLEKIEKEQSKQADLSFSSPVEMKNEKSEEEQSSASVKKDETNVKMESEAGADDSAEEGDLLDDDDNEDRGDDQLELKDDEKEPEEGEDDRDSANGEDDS
UniProt P70372: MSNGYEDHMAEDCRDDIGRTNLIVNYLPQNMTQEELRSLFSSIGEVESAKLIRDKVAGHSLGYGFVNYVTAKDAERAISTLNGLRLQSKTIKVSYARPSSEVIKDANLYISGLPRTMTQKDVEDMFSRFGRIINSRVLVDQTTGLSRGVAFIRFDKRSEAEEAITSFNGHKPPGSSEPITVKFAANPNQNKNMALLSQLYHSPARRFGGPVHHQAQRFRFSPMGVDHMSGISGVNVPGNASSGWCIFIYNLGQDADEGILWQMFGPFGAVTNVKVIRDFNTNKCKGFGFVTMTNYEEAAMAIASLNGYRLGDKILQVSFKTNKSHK
UniProt Q6P4T2: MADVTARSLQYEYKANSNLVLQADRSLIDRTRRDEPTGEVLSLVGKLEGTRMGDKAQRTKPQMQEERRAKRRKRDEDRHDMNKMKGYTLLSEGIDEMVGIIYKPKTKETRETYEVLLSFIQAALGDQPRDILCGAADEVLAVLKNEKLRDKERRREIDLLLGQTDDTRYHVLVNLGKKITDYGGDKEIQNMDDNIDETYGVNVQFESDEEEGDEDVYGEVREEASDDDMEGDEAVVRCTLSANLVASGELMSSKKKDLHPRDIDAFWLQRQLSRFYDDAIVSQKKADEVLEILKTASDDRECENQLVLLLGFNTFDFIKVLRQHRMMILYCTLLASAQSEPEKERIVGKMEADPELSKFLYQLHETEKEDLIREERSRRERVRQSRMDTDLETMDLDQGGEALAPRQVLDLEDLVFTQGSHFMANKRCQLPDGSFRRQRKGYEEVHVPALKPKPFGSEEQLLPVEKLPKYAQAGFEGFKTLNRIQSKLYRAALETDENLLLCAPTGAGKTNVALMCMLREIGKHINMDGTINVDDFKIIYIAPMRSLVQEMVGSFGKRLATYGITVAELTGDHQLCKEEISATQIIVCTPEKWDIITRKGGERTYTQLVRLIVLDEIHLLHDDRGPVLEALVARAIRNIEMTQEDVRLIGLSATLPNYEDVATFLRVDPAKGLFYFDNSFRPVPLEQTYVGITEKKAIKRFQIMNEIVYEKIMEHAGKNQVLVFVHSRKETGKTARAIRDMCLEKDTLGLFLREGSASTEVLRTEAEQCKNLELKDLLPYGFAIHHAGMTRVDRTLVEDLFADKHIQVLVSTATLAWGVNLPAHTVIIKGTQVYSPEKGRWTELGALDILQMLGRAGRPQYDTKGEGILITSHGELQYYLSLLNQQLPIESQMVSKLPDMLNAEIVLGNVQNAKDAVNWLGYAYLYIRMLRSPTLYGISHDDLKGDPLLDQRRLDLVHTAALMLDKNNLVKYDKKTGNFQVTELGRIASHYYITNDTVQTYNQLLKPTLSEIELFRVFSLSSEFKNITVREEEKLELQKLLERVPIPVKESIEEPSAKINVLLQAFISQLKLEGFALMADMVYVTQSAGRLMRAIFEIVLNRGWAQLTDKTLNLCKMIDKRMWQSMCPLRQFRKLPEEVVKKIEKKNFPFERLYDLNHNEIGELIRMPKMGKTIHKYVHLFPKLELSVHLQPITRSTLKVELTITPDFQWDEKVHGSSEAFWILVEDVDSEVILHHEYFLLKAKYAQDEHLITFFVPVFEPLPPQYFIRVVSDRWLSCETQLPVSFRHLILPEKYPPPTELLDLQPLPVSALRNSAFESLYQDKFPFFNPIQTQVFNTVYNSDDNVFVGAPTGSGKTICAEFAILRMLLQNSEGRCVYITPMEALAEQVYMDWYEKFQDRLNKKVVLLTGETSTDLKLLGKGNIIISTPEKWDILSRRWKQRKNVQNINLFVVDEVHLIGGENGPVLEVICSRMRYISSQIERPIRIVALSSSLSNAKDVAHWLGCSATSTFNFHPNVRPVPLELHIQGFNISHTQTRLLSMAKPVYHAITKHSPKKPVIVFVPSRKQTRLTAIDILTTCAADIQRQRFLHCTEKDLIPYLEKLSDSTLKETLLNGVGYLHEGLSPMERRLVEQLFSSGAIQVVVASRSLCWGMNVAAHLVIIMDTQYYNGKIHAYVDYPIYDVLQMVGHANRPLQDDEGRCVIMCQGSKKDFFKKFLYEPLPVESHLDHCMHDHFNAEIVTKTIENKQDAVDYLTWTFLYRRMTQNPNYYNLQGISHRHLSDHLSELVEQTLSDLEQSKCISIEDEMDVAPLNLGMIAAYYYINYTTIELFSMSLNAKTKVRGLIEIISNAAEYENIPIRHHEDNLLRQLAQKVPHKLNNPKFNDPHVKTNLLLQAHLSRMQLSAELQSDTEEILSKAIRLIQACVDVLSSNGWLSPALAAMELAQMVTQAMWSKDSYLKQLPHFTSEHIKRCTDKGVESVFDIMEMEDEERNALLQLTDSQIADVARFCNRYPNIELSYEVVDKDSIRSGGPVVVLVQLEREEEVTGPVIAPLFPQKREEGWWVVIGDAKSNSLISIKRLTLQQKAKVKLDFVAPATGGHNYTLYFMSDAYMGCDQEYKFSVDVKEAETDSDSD

Target: hnRNPC (mouse (endogenous in P8 testes)) (UniProt Q9Z204)
Test: co-IP; P8 WT mouse testis lysate, treated with or without RNase A (1 ug/mL, 30 min); Protein G magnetic beads with anti-hnRNPC antibody or rabbit IgG, overnight at 4 °C; Western blot of the immunoprecipitates

binding | Substance
binds | HuR (from UniProt P70372 1-326)
binds | SNRNP200 (from UniProt Q6P4T2 1-2136)
